Data: patent US20240277739A1, “NUTRITONAL COMPOSITIONS FOR GUT BARRIER FUNCTION” (N.V. Nutricia, priority 2021, published 2024)

System: infant microbiota (pooled fecal samples from 3 healthy infants)
Assay: Fermentation of galactosyllactoses by infant fecal microbiota (i-Screen anaerobic colon model)
Parameters: species or system human
Conditions: t = 24 h
Description: The effect of pure 3′-GL, 4′-GL, and 6′-GL of the three galactosyllactoses functionality (pH, lactate, acetate levels) was evaluated. Beta1,3-galactosyllactose (beat3′-GL), beta1,4-galactosyllactose (beta4′-GL) and beta1,6-galactosyllactose (beta6′-GL) were obtained from Carbosynth (Berkshire, UK) Measurements of all parameters were performed after a 24-hour incubation in the high-throughput anaerobic colon model, i-Screen™ (TNO, Zeist, the Netherlands).
Fecal samples from 3 healthy infants (aged 1-4 months) were pooled and activated for 4 hours in a modified standard ileal efflux medium (pH 6.0) at 37° C. under anaerobic conditions. Next, each GL was added. After an incubation for 24 hours at 37° C. under anaerobic conditions, samples were collected for further analysis and pH levels were immediately measured using a pH meter MultiCal pH 526 (WTW, Weilheim, Germany). The samples were centrifuged at 4,000 g for 5 minutes and the supernatant was filter sterilized using 0.45 μm filters. For the SCFA analysis, a mixture of formic acid ([…]), methanol and 2-ethyl butyric acid (internal standard, 2 mg/ml in methanol) was added to the filtered supernatant. […] The levels of acetic acid and lactic acid were measured. For lactate analysis, the total of D- and L-lactate was determined the filtered supernatant by the Arena 20XL analyser. […]

Gal (beta 1-3)-Gal (beta 1-4)-Glc [beta3′-GL]
pH (3 mg/ml): 5.5
pH (9 mg/ml): 4.5
